Source: doi:10.1101/2020.03.25.006957
Results are given in words; binding and its absence hold for the method and conditions named. Some results given as binding are weak or reduced against the parent protein; the word gives no strength. Where a sequence is shown, tags or fusion partners need not be part of it.

Biological target: MeGBSSI, yeast two-hybrid fusion (cassava (Manihot esculenta)) (UniProt Q43784)
Experiment: two-hybrid

binding: binds
B1: MeGBSSI, yeast two-hybrid fusion (enzyme, UniProt Q43784 1-608)
chain: MATVIAAHFVSRSSHLSIHALETKANNLSHTGPWTQTITPNGLRSLNTMDKLQMKTQSKAVKKVSATGNGRPAAKIICGHGMNLIFVGAEVGPWSKTGGLGDVLGGLPPAMAARGHRVMTVSPRYDQYKDAWDTSVSVEIKIGDRIETVRFFHSYKRGVDRVFVDHPMFLEKVWGKTGSKIYGPRAGLDYQDNQLRFSLLCLAALEAPRVLNLNSSKNFSGPYGEEVAFIANDWHTALLPCYLKAIYQPMGIYKHAKVAFCIHNIAYQGRFAFSDFPRLNLPDKFKSSFDFIDGYEKPVKGRKINWMKAGILESDRVLTVSPYYAQEVISGVERGVELDNFIRKTGIAGIINGMDVQEWNPVTDKYIDIHYDATTVMDAKPLLKEALQAEVGLPVDRNVPLIGFIGRLEEQKGSDIFVAAISQLVEHNVQIVILGTGKKKFEKQIEHLEVLYPDKARGVAKFNVPLAHMITAGADFMLVPSRFEPCGLIQLHAMRYGTVPIVASTGGLVDTVKEGYTGFQMGALHVECDKIDSADVAAIVKTVARALGTYATAALREMILNCMAQDLSWKGPARMWEKMLLDLEVTGSEPGTEGEEIAPLAKENVPTP
